Binding data for 3 molecules are collected here from patent US20240018229A1 (published 2024).

The chains behind the UniProt entries cited, without tags or fusion partners. Residues count along the entry.
UniProt P02769, residues 25-607: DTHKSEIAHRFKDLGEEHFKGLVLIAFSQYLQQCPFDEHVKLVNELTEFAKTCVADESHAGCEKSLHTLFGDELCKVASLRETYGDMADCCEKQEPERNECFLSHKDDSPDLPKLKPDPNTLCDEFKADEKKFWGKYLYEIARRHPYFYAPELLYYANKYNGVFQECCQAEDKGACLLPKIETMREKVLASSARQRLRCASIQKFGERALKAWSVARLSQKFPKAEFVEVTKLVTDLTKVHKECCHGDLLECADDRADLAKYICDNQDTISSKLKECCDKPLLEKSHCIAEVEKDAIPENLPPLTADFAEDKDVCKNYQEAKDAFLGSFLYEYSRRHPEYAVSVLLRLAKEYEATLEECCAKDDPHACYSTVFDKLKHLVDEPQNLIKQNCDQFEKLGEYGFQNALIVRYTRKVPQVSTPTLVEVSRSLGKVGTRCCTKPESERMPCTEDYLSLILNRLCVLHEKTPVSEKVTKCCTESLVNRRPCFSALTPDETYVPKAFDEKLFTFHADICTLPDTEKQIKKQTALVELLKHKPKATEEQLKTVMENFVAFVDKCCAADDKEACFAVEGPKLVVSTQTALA

The target in assay [1] is T1, recombinant human CXCL1 protein (human, UniProt P09341 35-107).
T1 construct: also called human chemokine CXCL1; soluble recombinant human CXCL1
T1 sequence: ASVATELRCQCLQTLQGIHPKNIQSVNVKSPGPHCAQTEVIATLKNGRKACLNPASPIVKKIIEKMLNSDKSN
In words: immunoprecipitation followed by LC/MS-MS.

Assay [2] has as its target T1, recombinant human CXCL1 protein. The experiment in a line: immunoblot strip (the text does not name the assay); 10, 20 and 30 ng of CXCL1 of each species loaded. On the technique in general: Immunoblotting shows a protein as a band on a membrane.
The target is the same in assay [3]. In words: absorbance at 450 nm against ng/mL, in PBS and in diluted human serum; neither the sheet nor the text says which partner is titrated.
Assay [4] shares this target. The experiment in a line: ELISA and Western blot, anti-Myc detection. On the technique in general: In an ELISA, binding on a coated surface is turned into a signal by an enzyme label.
In another assay the target is BSA (bovine) (UniProt P02769). In words: ELISA on coated BSA, scFv detected with anti-Myc HRP and TMB.
The target of assay [5] is T1, recombinant human CXCL1 protein. The experiment in a line: ELISA on coated human CXCL1 (30 ng per well), scFv detected with anti-Myc HRP and TMB.
Assay [6] has the same target. In words: Western blot: CXCL1 on the membrane probed with purified HumBB2401scFv, then anti-c-Myc mouse antibody, HRP secondary, TMB.
Assay [7] shares this target. In words: Western blot: CXCL1 on the membrane probed with purified Hum2401scFv, then anti-c-Myc mouse antibody, HRP secondary, TMB.

These are yes or no findings as the source states them, for the method shown. Some results given as binding are weak or reduced against the parent protein; the word gives no strength.

B1: anti-CXCL1 neutralizing monoclonal mouse antibody (HL2401) (antibody, V domains shown)
VH: EVKLVESGAELVKPGASVKLSCKASGYTFTSYYIYWVKQRPGQGLEWIGEIDPSHGGPTFNEKFKNKATLTVDKSSSTAYMQLSSLTSDDSAVYYCTRESGTGAMDYWGQGTTLTVSS
VL: DIVLTQSPASLAVSLGQRATISCKASQSVDYDGDSYVNWYQQKPGQPPKLLIYAASNLESRIPARFSGSGSGTDFTLNILPVEEDDGATYYCQQSSEDPWTFGGGTKLEIKR
notes: also called CXCL1 mAb (HL2401); mouse anti-human CXCL1 antibody HL2401
As for B1, the binding entry in assay [1], in assay [2] and in assay [3] was “binds” in each case.

B2: HumBB2401 scFv (humanized version 1) (scFv)
scFv: QVQLVQSGAEVKKPGASVKLSCKASGYTFTSYYIYWVRQAPGQGLEWIGEIDPSHGGPTFNEKFKNRATLTVDKSKSTAYMELSSLRSEDTAVYYCTRESGTGAMDYWGQGTLVTVSSGGGGSGGGGSGGGARGGGGSDIQMTQSPSSLSASVGDRATISCKASQSVDYDGDSYVNWYQQKPGKAPKLLIYAASNLESGIPSRFSGSGSGTDFTLTISSLQPEDFATYYCQQSSEDPWTFGQGTKVEIKR
As to B2, the binding result is recorded as “binds” in assay [4], “no binding (tested: 10ug/mL)” with BSA (bovine), “binds” in assay [5] and “binds” in assay [6].

B3: HUM2401-ScFv_1 (humanized version 2) (scFv)
scFv: QVQLVESGGGLVQPGGSLRLSCKASGYTFTSYYIYWVRQAPGKGLEWIGEIDPSHGGPTFNEKFKNRFTISRDNSKNTLYLQMNSLRAEDTAVYYCTRESGTGAMDYWGQGTLVTVSSGGGGSGGGGSGGGARGGGGSDIQMTQSPSSLSASVGDRATISCKASQSVDYDGDSYVNWYQQKPGKAPKLLIYAASNLESGIPSRFSGSGSGTDFTLTISSLQPEDFATYYCQQSSEDPWTFGQGTKVEIKR
B3: the binding result in assay [4] is “binds”; in the assay with BSA (bovine), “no binding (tested: 10ug/mL)”; in assay [5], “binds”; in assay [7] it was “binds”.
